# Source: the supplement of paper PMC9135407
# “And” between values parts separate entries of the source, which are not always exact repeats. Equal entries are not always repeated. Structures can show the parent of a compound that is named as a salt. ± gives the standard deviation of the averaged measurements. Some of the results follow. Baselines shift from plate to plate; read single values as rough.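 Assay uses culture-activated primary human stellate myofibroblasts; lipid droplet recovery indicates inactivation. Measured: proportion of Hoechst-counted cells over a plate-specific Bodipy cutoff, duplicate wells, DMSO and nortriptyline as per-plate negative and positive controls. A hit scores, control-normalized, above the plate's top-tenth-percentile nortriptyline wells or ranks among its three best wells. Final well concentrations not reported.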
# System: primary human hepatic stellate cells (donor 1)
# Experiment: percent Bodipy-positive cells; higher = more lipid droplet accumulation
# Conditions: 48 h
# [1] = library stock concentration: 10 mM
# [2] = library stock concentration: 80 uM
# [3] = library stock concentration: 400 uM
# [4] = library stock concentration: 2 mM
# [5] = library stock concentration: 3.33 mM
# [6] = library stock concentration: 1 mM
compound,measurement,setting,value
C=C1CC[C@H](O)C/C1=C/C=C1\CCC[C@]2(C)[C@@H]([C@H](C)CCCC(C)C)CC[C@@H]12 [Cholecalciferol],percent Bodipy-positive cells,,20.9 ± 7.1%
same,percent Bodipy-positive cells,library stock concentration: 5.2 mM,5.31 ± 1.9%
NC1(C(=O)O)CCCCC1 [1-Amino-1-cyclohexanecarboxylic acid hydrochloride],percent Bodipy-positive cells,[1],33.8 ± 5.7%
COc1cc2c(Nc3ccc(NC(=O)c4ccccc4)cc3)ncnc2cc1OCCCN1CCOCC1,percent Bodipy-positive cells,[2],18.8 ± 5.1%
same,percent Bodipy-positive cells,[3],19.6 ± 11%
same,percent Bodipy-positive cells,[4],35.8 ± 2.2%
CC(=O)Nc1ccc(C(=O)Nc2ccccc2N)cc1 [CI994 (Tacedinaline)],percent Bodipy-positive cells,[5],11.1 ± 0.66%
same,percent Bodipy-positive cells,[1],57.1 ± 12%
CC(Cc1cccc(C(F)(F)F)c1)NCCOC(=O)c1ccccc1 (centres undefined) [Benfluorex hydrochloride],percent Bodipy-positive cells,,59.1 ± 1.1%
same,percent Bodipy-positive cells,[1],21.2 ± 4.2%
COc1cc2c(NC3CCN(C(C)C)CC3)nc(C3CCCCC3)nc2cc1OCCCN1CCCC1,percent Bodipy-positive cells,[2],57.6 ± 7.7%
same,percent Bodipy-positive cells,[3],62.1 ± 12%
same,percent Bodipy-positive cells,[4],100%
same,percent Bodipy-positive cells,[1],100%
O=C(O)[C@]1(Cc2cccc(Nc3nccs3)n2)CC[C@@H](Oc2cccc(Cl)c2F)CC1,percent Bodipy-positive cells,[5],11 ± 5.8%
same,percent Bodipy-positive cells,[1],29.9 ± 6%
CCCCC/C=C\C/C=C\C/C=C\C/C=C\CCCCCC(=O)O [Adrenic Acid],percent Bodipy-positive cells,[6],9.29 ± 2.3%
C#Cc1cccc(Nc2ncnc3cc(OC)c(OCCCCCCC(=O)NO)cc23)c1,percent Bodipy-positive cells,[5],54.6 ± 6.2%
same,percent Bodipy-positive cells,[1],57.6 ± 3.3%
CC(=O)S[C@@H]1CC2=CC(=O)CC[C@]2(C)[C@H]2CC[C@@]3(C)[C@@H](CC[C@@]34CCC(=O)O4)[C@H]12 [Spironolactone],percent Bodipy-positive cells,,21.7 ± 2.1%
same,percent Bodipy-positive cells,[5],13 ± 4.9%
same,percent Bodipy-positive cells,library stock concentration: 4.8 mM,8.37% and 11.8%
CCCCCCCCCCCCCCCCCC=CC(=O)O [.DELTA.2-cis Eicosenoic Acid],percent Bodipy-positive cells,[6],6.23 ± 2.1%
CCCc1cc(C(N)=S)ccn1 [Prothionamide],percent Bodipy-positive cells,[1],48.5 ± 17%
CCCc1cc(C(N)=S)ccn1 [Protionamide],percent Bodipy-positive cells,[5],20.2 ± 6.6%
same,percent Bodipy-positive cells,[1],11 ± 3.3%
CC(C)(C)NC[C@@H](O)COc1cccc2c1CCCC2=O [(+) -Levobunolol hydrochloride],percent Bodipy-positive cells,,15.08 ± 0.12%
CO[C@H]1/C=C/O[C@@]2(C)Oc3c(C)c(O)c4c(O)c(c(/C=N/N5CCN(C6CCCC6)CC5)c(O)c4c3C2=O)NC(=O)/C(C)=C\C=C\[C@H](C)[C@H](O)[C@@H](C)[C@@H](O)[C@@H](C)[C@H](OC(C)=O)[C@@H]1C [Rifapentine],percent Bodipy-positive cells,[5],8.92 ± 2%
same,percent Bodipy-positive cells,[1],11.9 ± 6.9%
N=C(N)NC(=N)NCCc1ccccc1 [Phenformin HCl],percent Bodipy-positive cells,[5],18.2 ± 14%
same,percent Bodipy-positive cells,[1],10.7 ± 1.5%
N=C(N)NC(=N)NCCc1ccccc1 [Phenformin hydrochloride],percent Bodipy-positive cells,,28 ± 2%
same,percent Bodipy-positive cells,library stock concentration: 8.3 mM,15.9 ± 6.7%
O=c1[nH]c(C2CCCN2)nc2c1oc1ccc(Cl)cc12 (centres undefined),percent Bodipy-positive cells,[2],9.02 ± 3.4%
same,percent Bodipy-positive cells,[3],11.9 ± 2.5%
same,percent Bodipy-positive cells,[4],4.28 ± 1.4%
same,percent Bodipy-positive cells,[1],8.92 ± 1%
CCCCCCCCCCCCC/C=C/[C@@H](O)[C@H](CO)NC(=O)CCCCCCC [C8 Ceramide],percent Bodipy-positive cells,[6],17.7 ± 20%
CCCCCCCCCCCCC/C=C/[C@@H](O)[C@H](CO)NC(=O)CCCCCCC [C-8 Ceramide],percent Bodipy-positive cells,[6],9.16 ± 0.88%
CN1CCC(=C2c3ccccc3C=Cc3ccccc32)CC1 [Cyproheptadine hydrochloride],percent Bodipy-positive cells,library stock concentration: 6.2 mM,80.6 ± 14%
CN1CCC(=C2c3ccccc3C=Cc3ccccc32)CC1,percent Bodipy-positive cells,[1],79.2 ± 8.3%
CN1CCC(=C2c3ccccc3C=Cc3ccccc32)CC1 [Cyproheptadine HCl],percent Bodipy-positive cells,[5],56.9 ± 1.9%
same,percent Bodipy-positive cells,[1],75.9 ± 3.3%
CN1CCC(=C2c3ccccc3C=Cc3ccccc32)CC1 [Cyproheptadine],percent Bodipy-positive cells,library stock concentration: 7 mM,44.5 ± 15%
O=C(O)CCC/C=C\C[C@@H]1[C@@H](/C=C/[C@@H](O)C2Cc3ccccc3C2)[C@@H](F)C[C@@H]1O,percent Bodipy-positive cells,[6],18 ± 6.3%
NCC(O)C1CCCCCCC1 (centres undefined) [2-Cyclooctyl-2-hydroxyethylamine hydrochloride],percent Bodipy-positive cells,[1],82.8 ± 8.6%
CCCCC[C@H](O)/C=C/[C@@H]1[C@@H](CCCCCCC(=O)O)[C@H](O)C[C@H]1O [Prostaglandin F1.beta.],percent Bodipy-positive cells,[6],14.9 ± 1.3%
CN1CCN(CC/C=C2/c3ccccc3Sc3ccc(S(=O)(=O)N(C)C)cc32)CC1 [Thiothixene],percent Bodipy-positive cells,[1],66.8 ± 3.2%
CN1CCN(CC/C=C2/c3ccccc3Sc3ccc(S(=O)(=O)N(C)C)cc32)CC1,percent Bodipy-positive cells,[1],92.1 ± 1.1%
CNC1CCCN(c2c(F)cc3c(=O)c(C(=O)O)cn(C4CC4)c3c2OC)C1 (centres undefined) [Balofloxacin],percent Bodipy-positive cells,[5],14.5 ± 2.2%
same,percent Bodipy-positive cells,[1],12.27 ± 0.064%
C[C@H]1O[C@H](O[C@H]2[C@H](O)[C@@H](O)[C@@H](O[C@H]3[C@H](O)[C@@H](O)C(O)O[C@@H]3CO)O[C@@H]2CO)[C@H](O)[C@@H](O)[C@@H]1N[C@H]1C=C(CO)[C@@H](O)[C@H](O)[C@H]1O (some centres undefined),percent Bodipy-positive cells,[1],15.8 ± 6.7%
C[C@H]1O[C@H](O[C@H]2[C@H](O)[C@@H](O)[C@@H](O[C@H]3[C@H](O)[C@@H](O)C(O)O[C@@H]3CO)O[C@@H]2CO)[C@H](O)[C@@H](O)[C@@H]1N[C@H]1C=C(CO)[C@@H](O)[C@H](O)[C@H]1O (some centres undefined) [Acarbose],percent Bodipy-positive cells,library stock concentration: 3.1 mM,6.77 ± 2.1%
same,percent Bodipy-positive cells,[5],7.14 ± 3.1%
same,percent Bodipy-positive cells,[1],12.6% and 4.59%
C[C@@H](Oc1ccc2[nH]nc(/C=C/c3cnn(CCO)c3)c2c1)c1c(Cl)cncc1Cl,percent Bodipy-positive cells,[2],9.05 ± 1.4%
same,percent Bodipy-positive cells,[3],11.6 ± 2.8%
same,percent Bodipy-positive cells,[4],13.3 ± 4%
same,percent Bodipy-positive cells,[1],46.4 ± 8.5%

# An excerpt of these results, bar-delimited.
compound | measurement | setting | value
CC(=O)S[C@@H]1CC2=CC(=O)CC[C@]2(C)[C@H]2CC[C@@]3(C)[C@@H](CC[C@@]34CCC(=O)O4)[C@H]12 [Spironolactone] | percent Bodipy-positive cells | [5] | 13 ± 4.9%
same | percent Bodipy-positive cells | library stock concentration: 4.8 mM | 8.37% and 11.8%
CCCCCCCCCCCCCCCCCC=CC(=O)O [.DELTA.2-cis Eicosenoic Acid] | percent Bodipy-positive cells | [6] | 6.23 ± 2.1%
CCCc1cc(C(N)=S)ccn1 [Prothionamide] | percent Bodipy-positive cells | [1] | 48.5 ± 17%
CCCc1cc(C(N)=S)ccn1 [Protionamide] | percent Bodipy-positive cells | [5] | 20.2 ± 6.6%
